The other results are listed elsewhere or left out.
Biological target: T1, OsSMF1 (Oryza sativa, UniProt Q6ZLB0 1-436)
T1 sequence: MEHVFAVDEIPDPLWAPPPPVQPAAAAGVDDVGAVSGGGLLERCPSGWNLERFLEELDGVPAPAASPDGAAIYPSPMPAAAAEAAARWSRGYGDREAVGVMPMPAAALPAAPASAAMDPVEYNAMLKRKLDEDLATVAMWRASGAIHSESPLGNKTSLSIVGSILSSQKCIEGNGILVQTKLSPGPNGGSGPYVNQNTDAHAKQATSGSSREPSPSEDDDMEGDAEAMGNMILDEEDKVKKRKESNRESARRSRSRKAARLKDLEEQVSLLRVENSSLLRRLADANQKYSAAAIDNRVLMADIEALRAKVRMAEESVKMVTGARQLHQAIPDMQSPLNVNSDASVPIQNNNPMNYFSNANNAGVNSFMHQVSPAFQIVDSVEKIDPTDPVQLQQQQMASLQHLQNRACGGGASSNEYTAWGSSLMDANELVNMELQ
Assay: protein-binding microarray (RPBM); PBS, 2% BSA, 51.3 ng/ul salmon testes DNA, 50 uM zinc acetate, 200 nM TF, 25 C, 1 h; high values mean tight binding
Conditions: protein: recombinant; tags: N-terminal polyhistidine and DsRed monomer fusion (pET32a); chain copies: 2; label: CyDye5-dUTP incorporated in the synthesized complementary strand; 3' TTTTT single-stranded linker to array surface; dsDNA, one strand shown
Procedure, shortened: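 Per-feature fluorescence intensity (arbitrary units), read on an Axon 4000B scanner, is the binding signal. Transcription factors carrying an N-terminal polyhistidine tag and DsRed fusion were expressed in E. coli BL21-CodonPlus and purified on Ni–NTA. A custom Agilent array, made double-stranded by primer extension with Cy5-dUTP and blocked with 2% BSA, was incubated with 200 nM protein in PBS, 2% BSA, salmon testes DNA and 50 µM zinc acetate at 25 °C for 1 h and then washed.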

Sequence	binding signal
CCTATGACTATGCATCTGGCGAAGAGATTCTCCTTGTGATCGGAGTCACCTAGTGCAG	3420 fluorescence intensity (a.u.)
CGGTCTGACCGCCCACATACCTGCGGTCAGACCGGCCCTACGGAGTCACCTAGTGCAG	3420 fluorescence intensity (a.u.)
TGCCAAGCAAGTCCATGCCGCCACAACTCCTTCCTTCTCCCGGAGTCACCTAGTGCAG	3690 fluorescence intensity (a.u.)
TCGATCTCTTTACATCTCGTTGATGGCGTCATGGCGATGACGGAGTCACCTAGTGCAG	6700 fluorescence intensity (a.u.)
GCAGCGCCGCCGCCTCATCCGCGTCGACCTCCGCCTCCGCCGGAGTCACCTAGTGCAG	3340 fluorescence intensity (a.u.)
ATCCATGTTTCGACATAAACCCATTCAAACAAAGATCCATCGGAGTCACCTAGTGCAG	28800 fluorescence intensity (a.u.)
GGATCTACATTTTCGAATTTTACATATAGCAAAATAGCACCGGAGTCACCTAGTGCAG	3950 fluorescence intensity (a.u.)
TGGATATTTTCTACCCCTGGACCCAGCTGTCAGATCCAACCGGAGTCACCTAGTGCAG	3250 fluorescence intensity (a.u.)
TTACTTTTATATATATGACGTTTGACAATCCTCTTAATAACGGAGTCACCTAGTGCAG	3750 fluorescence intensity (a.u.)
ACCATGAATTCGATGATATTATCGTCAAAGTCATGAAAGACGGAGTCACCTAGTGCAG	3400 fluorescence intensity (a.u.)
GTTGCATGATTAAACGAATTGACACGTCCTGAACCCGATTCGGAGTCACCTAGTGCAG	7560 fluorescence intensity (a.u.)
AGTATTGATGATGCATCTTAGGTCACCAGCTGGCACGTCCCGGAGTCACCTAGTGCAG	5060 fluorescence intensity (a.u.)
CCTGCTATAAATACTTCACGTTGCTGTGTTCATAGAAACACGGAGTCACCTAGTGCAG	3200 fluorescence intensity (a.u.)
GGGTTGCAAATTTAACACCCGTCACAGGTGAGGTCAAACCCGGAGTCACCTAGTGCAG	4500 fluorescence intensity (a.u.)
ATAATTTGTTCAACATAGCTTCATGCCTTCTCAGCTTCTCCGGAGTCACCTAGTGCAG	3520 fluorescence intensity (a.u.)
CTTTTCTCTAACAGCGAGTTCAGTATCATTGACTGTCTCACGGAGTCACCTAGTGCAG	3370 fluorescence intensity (a.u.)
GCCACCCTCAGCCACTGGCCATCCGTGGGCCCCACCATCCCGGAGTCACCTAGTGCAG	22500 fluorescence intensity (a.u.)
AATTTTAGCATGGAACTAAACACAGCAGTAGTAGGAGTTTCGGAGTCACCTAGTGCAG	38200 fluorescence intensity (a.u.)
GAAGCCAGACACGTCAATTAAAGCTCGTAGGGATTTAGCTCGGAGTCACCTAGTGCAG	3160 fluorescence intensity (a.u.)
CCCAATACATTGCCTACGCCGTGCCAAGTGCCAAACAGGGCGGAGTCACCTAGTGCAG	4330 fluorescence intensity (a.u.)
TTGTATTTATGTGTGTGTACAGTCACCAGTATTTGTATTTCGGAGTCACCTAGTGCAG	9770 fluorescence intensity (a.u.)

Sequence	binding signal
CACTCTCTCTTCTCTCACTGCCACGTGGGCCCCACCCCATCGGAGTCACCTAGTGCAG	23000 fluorescence intensity (a.u.)
AAGCCGAAGCCACCCAGGGAGGGATTCAGCCGCGCGAGTCCGGAGTCACCTAGTGCAG	36300 fluorescence intensity (a.u.)
AACCCGGCGTTGGTGAGCTGTTCCATTGTGTCTATAGGCACGGAGTCACCTAGTGCAG	3210 fluorescence intensity (a.u.)
TGTTTTCTTGATTGAAATGAGGTGGCATTGCCTACTTGCCCGGAGTCACCTAGTGCAG	5940 fluorescence intensity (a.u.)
CACAAGTACTAGCCTCAATGCGTCACACGGACATGTACAGCGGAGTCACCTAGTGCAG	4120 fluorescence intensity (a.u.)
AGGGAGGAGAGGAAGATCACGAGCAATGCAGAACGTGGAGCGGAGTCACCTAGTGCAG	3730 fluorescence intensity (a.u.)
ACGAGTGGCAGCTAGAGATGGCAATGGGGACCCATGACCCCGGAGTCACCTAGTGCAG	11200 fluorescence intensity (a.u.)
ACAATCATTGTGATGTTGTCAAAGTCGTCCAAATACTTGCCGGAGTCACCTAGTGCAG	3470 fluorescence intensity (a.u.)
GCGGCCGCCGGCGCCGCTGTACATGTGCGTGCGGATACATCGGAGTCACCTAGTGCAG	3590 fluorescence intensity (a.u.)
CCCAAAACCATCGATGACATGTCGCTGTCATGCCACCACACGGAGTCACCTAGTGCAG	5910 fluorescence intensity (a.u.)
GCATGGCCCAGTTGACGTGGACGCTGCCCACCTATACTACCGGAGTCACCTAGTGCAG	10700 fluorescence intensity (a.u.)
GTCGCCGCCCTCTCTCTCTCACGCATCCCACGCCGCCGTGCGGAGTCACCTAGTGCAG	3180 fluorescence intensity (a.u.)
GATCTAGCCGACTCGATCCCGCCGATGACGATTCCATCCCCGGAGTCACCTAGTGCAG	39300 fluorescence intensity (a.u.)
CACTCTAGAAGACAACAAGACATAGCCCGTCACCACCACACGGAGTCACCTAGTGCAG	3210 fluorescence intensity (a.u.)
CTCCAAGCCCGTGATGGCCAAGCAGACAGCAGATTAAGAACGGAGTCACCTAGTGCAG	3350 fluorescence intensity (a.u.)
AGTCTCTAACTAAACACCATATATCTCTATTAATTACTACCGGAGTCACCTAGTGCAG	16000 fluorescence intensity (a.u.)
AAACCATCATCTTCACTAGTAGTAGAACCCAGATCGAGCACGGAGTCACCTAGTGCAG	10200 fluorescence intensity (a.u.)
CGCTTCGGTGGAGCTCTGGATCTGACGCGTCCTCTTCTTCCGGAGTCACCTAGTGCAG	6160 fluorescence intensity (a.u.)
TTATTCTTCTACCTAACCAGATCTCTCAGACCATATCATCCGGAGTCACCTAGTGCAG	3980 fluorescence intensity (a.u.)
ACACCCATCCATCACATCACCACATCACCAACAATGGCATCGGAGTCACCTAGTGCAG	5150 fluorescence intensity (a.u.)
TTAACAATGAGACCCTTGGCTACTTTATTGGAAGGGTCTACGGAGTCACCTAGTGCAG	12200 fluorescence intensity (a.u.)

Some of the entries so far, as a markdown table.

| Sequence | binding signal |
| --- | --- |
| AACCCGGCGTTGGTGAGCTGTTCCATTGTGTCTATAGGCACGGAGTCACCTAGTGCAG | 3210 fluorescence intensity (a.u.) |
| TGTTTTCTTGATTGAAATGAGGTGGCATTGCCTACTTGCCCGGAGTCACCTAGTGCAG | 5940 fluorescence intensity (a.u.) |
| CACAAGTACTAGCCTCAATGCGTCACACGGACATGTACAGCGGAGTCACCTAGTGCAG | 4120 fluorescence intensity (a.u.) |
| AGGGAGGAGAGGAAGATCACGAGCAATGCAGAACGTGGAGCGGAGTCACCTAGTGCAG | 3730 fluorescence intensity (a.u.) |
| ACGAGTGGCAGCTAGAGATGGCAATGGGGACCCATGACCCCGGAGTCACCTAGTGCAG | 11200 fluorescence intensity (a.u.) |
| ACAATCATTGTGATGTTGTCAAAGTCGTCCAAATACTTGCCGGAGTCACCTAGTGCAG | 3470 fluorescence intensity (a.u.) |
| GCGGCCGCCGGCGCCGCTGTACATGTGCGTGCGGATACATCGGAGTCACCTAGTGCAG | 3590 fluorescence intensity (a.u.) |

Next results follow:

Sequence	binding signal
GATTTGATTCGTCATCAAATGTTCTTTAAGCATGACATAACGGAGTCACCTAGTGCAG	3710 fluorescence intensity (a.u.)
ATTGGTGTTGGTTGGTACGCTGGTTGGTGACCATGCAGTTCGGAGTCACCTAGTGCAG	4250 fluorescence intensity (a.u.)
CCCTTTACACTTGCTTATCCAGTCATAGTTGCCTTACCAGCGGAGTCACCTAGTGCAG	5040 fluorescence intensity (a.u.)
ACCAAATTTTAGCAATACCAAAATTTTGGCATAGTTGCCACGGAGTCACCTAGTGCAG	7010 fluorescence intensity (a.u.)
CTTGATACAGAGAGAAATTAAGTGCAAGTGTGTGACACGTCGGAGTCACCTAGTGCAG	5600 fluorescence intensity (a.u.)
GTGCCCGTCTGTTGAACTGCCTTCATGGCAAGGATGTCACCGGAGTCACCTAGTGCAG	4310 fluorescence intensity (a.u.)
CCTAAAATACATGACCAGCCCACACAGGACTTAACCCACACGGAGTCACCTAGTGCAG	3230 fluorescence intensity (a.u.)
TGTATCTCAAAATAGTGACCTCACCATATTGTCATCCTTTCGGAGTCACCTAGTGCAG	3160 fluorescence intensity (a.u.)
GTGGCAGCGCCAGCGAGCTCGTCATCGTCGTCGTCGTCGGCGGAGTCACCTAGTGCAG	15700 fluorescence intensity (a.u.)
TTACTTCCTCCATTTCATAATGTGAGTCATTCTAGCATTTCGGAGTCACCTAGTGCAG	7570 fluorescence intensity (a.u.)
TTCCTCCAGACATCAACCACCTTCCAGGTGGCGGCGGCCGCGGAGTCACCTAGTGCAG	3290 fluorescence intensity (a.u.)
GGTTAACTTTGATTCACATTCCAACTCATCCATTTTCTAACGGAGTCACCTAGTGCAG	3890 fluorescence intensity (a.u.)
ATGGCTGTTGATTTTAATAGTGCAGGAGTGGTTTATAGCTCGGAGTCACCTAGTGCAG	4220 fluorescence intensity (a.u.)
GCGTGGGGCCCGTGCTGTCAGTGAGACGTGGCGCTGCGCCCGGAGTCACCTAGTGCAG	7700 fluorescence intensity (a.u.)
TTAAAGTAGCTTTACACGTAAATCGGACGCTGACGTCAGCCGGAGTCACCTAGTGCAG	28400 fluorescence intensity (a.u.)
AATTTCCACGGTCCACGGGCCGGCCCCACTGCCCAGTCAGCGGAGTCACCTAGTGCAG	6030 fluorescence intensity (a.u.)
TGTTCCAACCCGCTCCGTGTGCTGACGTGGCATGACATGGCGGAGTCACCTAGTGCAG	44900 fluorescence intensity (a.u.)
CGCTGCTGAGTGCTGACTCCTTCGCCCTCCTCCTCACTTTCGGAGTCACCTAGTGCAG	7650 fluorescence intensity (a.u.)
GTCATACACAATGAGGTCTAAGTCAAATCGAGTCAACGAGCGGAGTCACCTAGTGCAG	3280 fluorescence intensity (a.u.)
GAATCGTCTAGTTCTCTGGTTAAAGGGTACGAATCAATTCCGGAGTCACCTAGTGCAG	4260 fluorescence intensity (a.u.)
GAAGAACGCGTCAGGTCACTGGAGAGCATCGCTACCTCGCCGGAGTCACCTAGTGCAG	3400 fluorescence intensity (a.u.)

Sequence	binding signal
GATTCGCGACACGGCACGGTACAGTCATTAACAAGGCCAGCGGAGTCACCTAGTGCAG	6320 fluorescence intensity (a.u.)
AAATATTTTCAGTCTACTTAGTGACACAGCGTCCAATTTTCGGAGTCACCTAGTGCAG	6410 fluorescence intensity (a.u.)
CCGCAGCTTGTGAAGTATGGAAAGCGATCAAATTCGAGTTCGGAGTCACCTAGTGCAG	5200 fluorescence intensity (a.u.)
GAAGTGGAAGAGCTCCACGCCTGTCGAGCTGTCTGCGTCGCGGAGTCACCTAGTGCAG	3300 fluorescence intensity (a.u.)
ATGATGCACGACAGGACGACGTGTTTCCACGTGAAACGTCCGGAGTCACCTAGTGCAG	5990 fluorescence intensity (a.u.)
CTCGATCATGGCGGACTCGAGCCCCTCCACGTACCTCCGCCGGAGTCACCTAGTGCAG	5910 fluorescence intensity (a.u.)
CGTGGTTTATTGTAAAATTAGTGATGTAACAAATAATGTGCGGAGTCACCTAGTGCAG	3390 fluorescence intensity (a.u.)
TCCACGCACAAACCACGTAAGCACGCACCACCTCGCGCGGCGGAGTCACCTAGTGCAG	14700 fluorescence intensity (a.u.)
CACTGTCGGCGTGCGCGCCGCGTGCCGCCTCCCGTCCTCTCGGAGTCACCTAGTGCAG	3750 fluorescence intensity (a.u.)
TAGATAGTACTAGGTGAAGTTGATGCGTGTTGGTTCACTGCGGAGTCACCTAGTGCAG	3490 fluorescence intensity (a.u.)
ACACCGAGCAATGATCATATTGTAATCCTTCCCGTCGCCGCGGAGTCACCTAGTGCAG	3400 fluorescence intensity (a.u.)
TGGATTCCCCTCCTTGGAACCACGTCTGCCGCACAGTTCCCGGAGTCACCTAGTGCAG	3720 fluorescence intensity (a.u.)
AAAATGTATGGTTGAAAATGACATCAAAGTGAACAGAACCCGGAGTCACCTAGTGCAG	3210 fluorescence intensity (a.u.)
TTATCAAGACACACGTGTGTTAACATGACTTGCGCACCTCCGGAGTCACCTAGTGCAG	3930 fluorescence intensity (a.u.)
CCGTCGTCGACGCTCTGCCTGACGCGGCACCGCATCGCCCCGGAGTCACCTAGTGCAG	12000 fluorescence intensity (a.u.)
AGTCAACGGTGTCAAACATTTCGAAACGGAGGGAGTAATACGGAGTCACCTAGTGCAG	29300 fluorescence intensity (a.u.)
AGCGATCTTACGTGTGTAGTGCTGTGTGTTTATGAGCGTCCGGAGTCACCTAGTGCAG	6100 fluorescence intensity (a.u.)
GCGTGGTGTTTTGCGTCAATTAAAGAATAATTGATGTTGCCGGAGTCACCTAGTGCAG	3400 fluorescence intensity (a.u.)
ATCTGCATTTGTTTGTTCCTGTCACCTTTGTACCATCCAACGGAGTCACCTAGTGCAG	3720 fluorescence intensity (a.u.)
TAAGAAATACTAGAAGGATCAAGATGTACAAATTCCACAACGGAGTCACCTAGTGCAG	3760 fluorescence intensity (a.u.)
GGAAGTCGAATCCCGGGCCGAGGTTGGCGACGGTGGCGGGCGGAGTCACCTAGTGCAG	3160 fluorescence intensity (a.u.)

Reference: publication PMC7819943, “Rice protein-binding microarrays: a tool to detect cis-acting elements near promoter regions in rice”
